According to PubChem BioAssay AID2551 (National Center for Advancing Translational Sciences (NCATS), 2010):
“And” between values parts separate entries of the source, which are not always exact repeats. Identical values can stand only once. Screen size: about 310,000 compounds; about 17,000 (5.5%) were called active. Inconclusive means that the source gave no clear call. Such entries were picked first, then a sample of the others. The call rests on the fitted dose curve; in most records, active means well fitted inhibition curve with a large enough effect; inconclusive means small, poorly fitted or top-dose-only effect, or effect the other way; inactive means no such curve, though single readings can be large or run the other way. Potencies beside an inconclusive call are fits to weak or partial responses and may not hold up.

Chains of the proteins cited; added tags and fusions are not shown. Lines headed by an entry give the natural chain unless they say otherwise; changes in a name come on top.
UniProt P51450: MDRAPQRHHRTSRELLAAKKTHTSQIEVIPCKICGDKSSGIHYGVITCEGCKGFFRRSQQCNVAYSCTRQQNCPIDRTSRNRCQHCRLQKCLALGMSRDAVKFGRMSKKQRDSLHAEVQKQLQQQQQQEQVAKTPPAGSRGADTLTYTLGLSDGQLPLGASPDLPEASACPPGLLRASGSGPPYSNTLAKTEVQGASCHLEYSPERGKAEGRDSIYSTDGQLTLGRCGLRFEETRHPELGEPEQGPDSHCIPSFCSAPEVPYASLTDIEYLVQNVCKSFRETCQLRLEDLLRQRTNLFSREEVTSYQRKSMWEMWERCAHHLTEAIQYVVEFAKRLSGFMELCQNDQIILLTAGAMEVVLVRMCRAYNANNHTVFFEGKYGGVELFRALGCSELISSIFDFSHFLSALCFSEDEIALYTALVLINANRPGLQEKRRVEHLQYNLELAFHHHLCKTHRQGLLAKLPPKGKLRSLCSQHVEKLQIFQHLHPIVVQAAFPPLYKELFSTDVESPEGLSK

Biological target: Nuclear receptor ROR-gamma (Mus musculus) (UniProt P51450)
Assay: qHTS for inhibitors of ROR gamma transcriptional activity; further: nearly all actives have a fitted effect of over 60% in size
Conditions: Drosophila S2 Gal4-RORgamma UAS-luciferase reporter, 20 h; activity change, negative = inhibition: at 53.6 µM (top of the series)
Summary of the method: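 Drosophila Schneider cells stably carrying a metallothionein-driven Gal4 DBD–ROR gamma fusion and a UAS-Photinus luciferase reporter were exposed to compound for 1 hr, then induced with copper sulfate (700 uM final) for 20 hr at ambient temperature before luminescence reading.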
On the % scale 0 is the no-effect control and ±100 the full control effect; potency means the concentration at half of the fitted maximal effect.

SMILES	Potency	activity change, negative = inhibition
COc1ccccc1CNC(=O)c1cccc(-c2ccc(C)c3ccccc23)n1	inconclusive: 12.6 µM [activator, partial curve] and inconclusive: 28.2 µM [activator, single point]	
O=C(Nc1ccccc1)C1=C[C@@H](c2csc3ccccc23)C[C@@H](OCc2ccc(CO)cc2)O1	inconclusive: 14.1 µM [activator, single point]	
Cc1ccccc1CSCc1nc2ccccc2[nH]1	inconclusive: 35.5 µM [inhibitor, single point]	
Cc1ccc(NC(=S)N/N=C/c2ccc(Cl)c([N+](=O)[O-])c2)cc1	active: 17.8 µM	
COc1ccc(CCNC(=S)NC(=O)c2ccccc2)cc1OC	active: 4.47 µM	
Cc1ccc2nc(NC(=O)C3CCCN(S(=O)(=O)c4cccnc4)C3)sc2c1 (configuration not stated)	inconclusive: 3.55 µM [activator, single point]	
Nn1cnnc1SCC(=O)N(C1CCCCC1)C1CCCCC1		inactive: -1.78%
CC(=O)NC(=S)Nc1ccccc1N1CCCCC1	active: 2.51 µM	
NC(=O)C1CCN(C2CC(=O)NC2=O)CC1 (configuration not stated)	inconclusive: 35.5 µM [inhibitor, single point]	
Cc1ccc(Cl)cc1N1CCN(Cc2nnnn2C2CCCCC2)CC1	inconclusive: 31.6 µM [activator, single point]	
Cc1cc(NC(=O)c2ccc(Cl)cc2)no1		inactive: -31.8%
Cn1cc([N+](=O)[O-])c(C(=O)N2CCCCCC2)n1		inactive: 0.446%
Cc1sc2nc(SCCN(C)C)n(-c3ccccc3)c(=O)c2c1-c1ccc(F)cc1		inactive: -26.6%
CC(=O)N(C1=C(N)C(=O)c2ccccc2C1=O)C(C)C	active: 11.2 µM	
COc1ccc(/C=C/c2c(-c3ccc(OC)cc3)sc3ccc(N4CCOCC4)cc23)cc1		inactive: 2.76%
COc1ccc(-n2nc(C(=O)NCC(=O)N3CCN(Cc4ccccc4)CC3)c3ccccc3c2=O)cc1	inconclusive: 4.47 µM [activator, partial curve]	
O=C1CS/C(=N/N=C2CCCC2)N1	active: 7.94 µM	
Cc1ccc(CN=c2c([N+](=O)[O-])nn(-c3cccc(Cl)c3)n2O)cc1	inconclusive: 15.8 µM [inhibitor, single point]	
COc1ccc(/C=C2\N=C(SC)N(c3ccccc3OC)C2=O)cc1	inconclusive: 7.94 µM [activator, partial curve]	
CN(C)c1nc(NCc2ccccc2)nc(SCC(=O)Nc2ccc(Cl)c(Cl)c2)n1	inconclusive: 12.6 µM [activator, partial curve]	
N/C(CS(=O)(=O)c1ccccc1)=N\OC(=O)c1ccc(F)cc1		inactive: 27%
COc1ccc(CNC(=O)C2CCCN(S(=O)(=O)c3ccc(Br)s3)C2)cc1 (configuration not stated)	inconclusive: 20 µM [activator, single point]	
CC(C)C(=O)Nc1ccc(C(=O)N/N=C/c2cc(Br)cc(Br)c2O)cc1	inconclusive: 2.51 µM [inhibitor, full curve, poor fit]	
CSc1nc2[nH]c3c(c2c2ncnn12)CCCC3	inconclusive: 20 µM [inhibitor, single point]	

SMILES	Potency	activity change, negative = inhibition
COc1ccc2[nH]c3c(c2c1)CCC/C3=N\N		inactive: -1.76%
CN(Cc1ccccc1)c1nc(CN2CCOCC2)nc2scc(-c3ccccc3)c12	active: 10 µM	
CCSCc1nnc(SCC(=O)Nc2cccc(SC)c2)n1C	inconclusive: 11.2 µM [activator, partial curve]	
Cc1cccc(N2CCN(C(=O)CCC(=O)N3CC(C)Oc4ccc(C)cc43)CC2C)c1 (configuration not stated)		inactive: 35.1%
Cc1cc(-c2ccccc2)nc(-c2ccccc2)c1C	inconclusive: 14.1 µM [inhibitor, single point]	
CCN1C(=O)c2cccc3c(S(=O)(=O)Nc4ccccc4)ccc1c23		inactive: -35.5%
CSc1nnc(C2CCCN(CC(=O)Nc3ccccc3N3CCOCC3)C2)n1C(C)C (configuration not stated)	inconclusive: 1.41 µM [activator, partial curve, poor fit]	
S=c1[nH]nc(-c2cccnc2)n1C1CCCCC1	inconclusive: 17.8 µM [inhibitor, single point]	
Cc1nn(CC(O)COc2ccc3c(c2)CCC3)c(C)c1C (configuration not stated)		inactive: 7.07%
COc1ccccc1N1CCN(C(=S)NC(=O)/C=C/c2ccc(F)cc2)CC1	active: 3.55 µM	
Cc1cc(-n2c(C)cc(C(=O)CCl)c2C)no1	active: 6.31 µM	
CN(c1ccc(OCC(=O)Nc2nc3ccccc3s2)cc1)S(=O)(=O)c1ccccc1	inconclusive: 3.16 µM [activator, full curve]	
COc1ccc(C(CCc2ccc(C)o2)NC(=O)Nc2ccc(OC)cc2OC)cc1 (configuration not stated)	inconclusive: 10 µM [activator, partial curve]	
CCCC(=O)Nc1ccc2c(c1)C(=O)NC2=O	inconclusive: 15.8 µM [activator, single point]	
CCOc1ccc(CN2C(=O)c3ccccc3C2=O)cc1C(=O)O		inactive: 0.0812%
CN(C)c1ccc(NC(=S)NC23CC4CC(CC(C4)C2)C3)cc1	active: 2 µM	
Cc1ccc(C2CCN(C(=S)Nc3cccc(C)c3)C2)cc1 (configuration not stated)	active: 7.94 µM	
CCc1ccc(Nc2n[n+](-c3ccccc3)c(-c3ccc(N(CC)CC)cc3)s2)cc1	inconclusive: 35.5 µM [inhibitor, single point]	
Cc1ccc(OCc2cc(C(=O)N3CCC(C(O)C(C)C)CC3)no2)cc1C (configuration not stated)	inconclusive: 14.1 µM [activator, single point]	
CCc1nc(Nc2ccc(NC(C)=O)cc2)c2oc3ccccc3c2n1		inactive: 3.42%
O=c1cc(CCl)nc2sc3ccccc3n12	inconclusive: 7.94 µM [inhibitor, partial curve]	
Cc1ccc(-c2cc(-c3c(C)nn(C)c(=O)c3N)[nH]n2)cc1	inconclusive: 35.5 µM [activator, single point]	
COCCn1c(SCC(=O)Nc2sc(C)c(C)c2C#N)nnc1C(C)C	inconclusive: 35.5 µM [activator, single point]	
COc1ccccc1Nc1nnc(Cc2ccccc2)c(=O)[nH]1		inactive: -8.04%

SMILES	Potency	activity change, negative = inhibition
O=C(Nc1ccc2nccnc2c1)c1cnccn1	inconclusive: 7.08 µM [activator, partial curve]	
COc1ccccc1Nc1nc(-c2sc(N)nc2C)cs1	inconclusive: 11.2 µM [inhibitor, single point]	
CCCCC(NC(=O)CCc1c(C)c2cc3c4c(oc3c(C)c2oc1=O)CCCC4)C(=O)O (configuration not stated)	inconclusive: 12.6 µM [inhibitor, partial curve, poor fit]	
COc1cccc(-c2noc(-c3cccs3)n2)c1	inconclusive: 0.501 µM [activator, full curve]	
O=C(C(Cc1ccccc1)n1cccc1)N1CCc2ccccc21 (configuration not stated)	inconclusive: 17.8 µM [inhibitor, single point]	
Cc1cccc(NC(=S)Nc2ccc(N3CCOCC3)cc2)c1C	inconclusive: 15.8 µM [inhibitor, single point]	
COc1ccc2[nH]cc(CCNc3ccnc(-c4ccccc4C)n3)c2c1		inactive: 25.9%
Cc1ccc(-c2cn(-c3ccccc3)c(SCC(=O)NC3CCS(=O)(=O)C3)n2)cc1C (configuration not stated)	active: 12.6 µM	
COc1cc(-c2nc(-c3ccccn3)no2)cc(OC)c1OC	inconclusive: 0.562 µM [activator, full curve, poor fit]	
CCCN1CNC(=S)N(c2cccc(C)c2)C1	active: 11.2 µM	
COc1ccc(C2NC(=S)NC3=C2CCc2ccccc23)cc1OC (configuration not stated)	inconclusive: 5.01 µM [inhibitor, single point]	
COc1ccccc1NC(=O)CSc1nnc(-c2ccccn2)o1	inconclusive: 15.8 µM [inhibitor, single point]	
CCC(=O)c1ccc(OCc2ccc(C(=O)c3ccccc3)cc2)cc1	inconclusive: 35.5 µM [inhibitor, single point]	
Cc1c(O)cc2n(c1=O)-c1ccc(Cl)cc1C2(C)C	inconclusive: 11.2 µM [activator, partial curve, poor fit]	
COc1ccc(NS(=O)(=O)c2c(F)cc(F)c(Cl)c2F)cc1S(=O)(=O)N1CCCCC1	inconclusive: 14.1 µM [activator, single point]	
O=C(O)c1ccccc1N/N=C/C1=C(N2CCOCC2)C(=C\c2ccccc2)/CC1	inconclusive: 0.501 µM [activator, full curve, poor fit]	
COC(=O)C1=C(C)NC(=S)NC1c1ccc(OC(=O)c2ccco2)cc1 (configuration not stated)		inactive: -26.6%
COc1c(O)cc2oc3cc(O)c(CC=C(C)C)c(O)c3c(=O)c2c1CC=C(C)C	inconclusive: 15.8 µM [inhibitor, single point] and inconclusive: 35.5 µM [inhibitor, single point]	
CN(C)c1ccc(C2CC(=O)C=C(Nc3ccccc3N)C2)cc1 (configuration not stated)		inconclusive: 48.4% [activator]
CC1CCCN(C(=O)c2ccncc2)C1 (configuration not stated)		inactive: -0.516%
CCCN1C2CCCC1CC(NC(=O)NC1CCCCC1)C2 (configuration not stated)	inconclusive: 1 µM [activator, partial curve]	
COc1ccc(-c2csc(Nc3ccc(S(=O)(=O)Nc4cc(OC)nc(OC)n4)cc3)n2)cc1	inconclusive: 17.8 µM [activator, partial curve]	
COc1ccc(NC2=CC(=O)CC(c3ccccc3)C2)c(OC)c1 (configuration not stated)	inconclusive: 10 µM [activator, partial curve]	
CC(=O)CSc1ncnc2sc3c(c12)CCC(C)C3 (configuration not stated)	active: 3.16 µM	
